Test results taken from paper PMC12415261 (Proceedings of the National Academy of Sciences of the …, 2025).
These are yes or no findings as the source states them, for the method shown. Some entries that bind do so weakly or less than the wild type. For some assays here: Tags and fused reporters may be left off the sequences shown.

Chains of the proteins cited; added tags and fusions are not shown. Residues count along the entry.
UniProt P22004, residues 375-513: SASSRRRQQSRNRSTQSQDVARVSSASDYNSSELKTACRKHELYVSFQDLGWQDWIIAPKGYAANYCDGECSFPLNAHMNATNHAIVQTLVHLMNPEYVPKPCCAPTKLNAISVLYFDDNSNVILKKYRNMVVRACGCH

Columns and labels:
ALK2-ActRIIB-Fc = molecular target: T1, ALK2-ActRIIB-Fc (human, UniProt Q04771 21-123; Q13705 19-133); assay: SEC; trap (with Fc or IdeS-digested) mixed with BMP6; Superdex 200 increase; for the digested traps 2.1:1 trap:ligand, 30 min at room temperature; both purified
T1 construct: signal peptide in the construct; extracellular domain of human ActRIIB, residues 1 to 133; also called heterodimeric trap; ActRIIB-ALK2; source: CHO cells, cotransfected, purified (MabSelect SuRe protein A with pH gradient, SEC); not shown: Fc (IgG1), C-terminal, kept; copies: 1 + 1

[1] = molecular target: T2, ALK2-ActRIIB (cleaved from the Fc-domain, still joined by the hinge disulfides) (human) (UniProt Q04771+Q13705); assay: as above
T2 sequence 1: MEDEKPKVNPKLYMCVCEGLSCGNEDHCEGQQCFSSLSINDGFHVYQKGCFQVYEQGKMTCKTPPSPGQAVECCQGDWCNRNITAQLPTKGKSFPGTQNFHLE
T2 sequence 2: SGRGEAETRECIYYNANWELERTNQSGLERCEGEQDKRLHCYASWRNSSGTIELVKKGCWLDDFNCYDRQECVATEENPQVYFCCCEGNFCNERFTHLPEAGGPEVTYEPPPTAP

[2] = molecular target: T3, ActRIIB-ECD (the ActRIIB arm of ALK2-ActRIIB and ALK3-ActRIIB in the cryoEM structures) (human) (UniProt Q13705); assay: cryo-EM structure; IdeS-digested trap with BMP6, complex purified by SEC, ~3 mg/mL, 0.15% PMAL-C8 amphipol; C2 symmetry applied; both purified
T3 sequence: T2 sequence 2

[3] = molecular target: T2, ALK2-ActRIIB (cleaved from the Fc-domain, still joined by the hinge disulfides) (human); assay: as above
[4] = molecular target: Recombinant human BMP6, mammalian expressed (glycosylated) (human) (UniProt P22004); assay: as above

Measured: binding

Recombinant human BMP6, mammalian expressed (glycosylated) (from UniProt P22004 375-513) (ligand)
binds: all assays above
